This assay is described as follows: qHTS Assay to Find Inhibitors of Chronic Active B-Cell Receptor Signaling. The settings on record: ABC-DLBCL IkBa-CBG/CBR reporter, luminescence ratio (green luciferase fused to IkBa over red control in TMD8 lymphoma cells), 4 h. The method, boiled down:
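Doxycycline induced both beetle luciferases in TMD8 lymphoma cells; IKK-driven degradation limits the IkappaBalpha-fused green signal, while red luminescence normalises for cell number and nonspecific effects. Compounds tested up to 46 uM, 4 hrs.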
On the technique in general: qHTS replaces the single test concentration by a dilution series.

The mark [1] stands for this setting: measured here: CBR red luminescence, cell number.
[2] abbreviates: measured here: IkBa-CBG green luminescence.

This is one part of the list. The main result of the screen is listed elsewhere. These columns were measured beside it and carry no call. The list favours compounds with an active or inconclusive main result. Words in brackets tell the shape of the fitted curve; partial curves, single points and poor fits give uncertain potencies.

The AC50 is the midpoint of the concentration-response curve, whichever way the signal moves. For `Cc1ccc2c(=O)c(C(=O)NCc3cccs3)c[nH]c2c1`, under setting [1], the AC50 is 16.4 µM [falling, single point].

`NS(=O)(=O)c1ccc(Nc2nc(-c3ccccc3)cs2)cc1`: the AC50 under setting [1] is 0.92 µM [falling, full curve, poor fit].

`Cc1conc1NC(c1cccs1)c1ccc2cccnc2c1O` (stereo unspecified): the half-maximal activity concentration (AC50) under setting [1] was 3.16 µM [falling, full curve].

With `COCCNc1cc(C)nc2cc(-c3ccc(C)cc3)nn12`, under setting [1], the AC50 is 4.47 µM [rising, partial curve, poor fit].

As for `Cc1cccc(C(=O)Nc2nnc(-c3ccco3)o2)c1`, under setting [1], the concentration at half-maximal activity (AC50) is 18.4 µM [falling, single point].

For the compound `C=CCN1C(=O)C2(C(C(=O)c3ccc(C)o3)=C(O)C(=O)N2CCCN2CCOCC2)c2ccccc21` (stereo unspecified), under setting [1], the concentration at half-maximal activity (AC50) is 11.2 µM [rising, partial curve, poor fit].

Regarding `CCOc1ccc(S(=O)(=O)N2CCOCC2)cc1NC(=O)Cc1c(F)cccc1Cl`, the concentration at half-maximal activity (AC50) under setting [1] is 29.1 µM [rising, single point].

`COc1ccc(CCNC(=O)Cn2c([N+](=O)[O-])cnc2C)cc1OC`: the half-maximal activity concentration (AC50) under setting [1] is 12.6 µM [rising, single point].

As for `CC(C)(C)c1ccc(C(=O)N2CCCCCC2=O)cc1`, the AC50 under setting [1] was 4.61 µM [falling, partial curve].

Take `O=C(NC1CCCCC1)C(c1cccs1)N(CC1CCCO1)C(=O)c1csnn1` (stereo unspecified): the AC50 under setting [1] was 2.82 µM [falling, partial curve, poor fit].

In the case of `COc1ccc(OC)c(NC(=O)Nc2cccc(Cn3cccn3)c2)c1`, under setting [1], the concentration at half-maximal activity (AC50) was 29.1 µM [falling, single point].

Turning to `Cc1nn(-c2ccccc2)c(C)c1C1C(C#N)=C(N)Oc2n[nH]c(C)c21` (stereo unspecified), the half-maximal activity concentration (AC50) under setting [1] was 18.4 µM [falling, partial curve].

Regarding `COC1=C/C(=C/c2c(N)n3nc(-c4ccc(C)cc4)sc3nc2=O)C=CC1=O`, the concentration at half-maximal activity (AC50) under setting [1] was 14.1 µM [falling, single point].

In the case of `COc1ccc(CCNS(=O)(=O)c2c(C)nc3scc(C)n3c2=O)cc1OC`, the AC50 under setting [1] was 35.5 µM [rising, single point].

Consider `O=C(O)c1c(NC(=O)c2cccc3ccccc23)sc2c1CCC2`, for which the concentration at half-maximal activity (AC50) under setting [1] is 6.51 µM [falling, partial curve, poor fit].

Consider `COCCNC(=O)c1cc(-c2ccccc2)n(Cc2cc(C)no2)n1`, for which the AC50 under setting [1] is 1.3 µM [rising, full curve, poor fit].

Consider `COC(=O)c1ccc(NC(=O)c2cn(-c3cccc(C)n3)cn2)cc1`, for which the AC50 under setting [1] is 2.24 µM [falling, partial curve, poor fit].

With `O=C(Cc1ccccc1[N+](=O)[O-])NC1CC2CCC1C2` (stereo unspecified), under setting [1], the AC50 is 8.91 µM [rising, partial curve, poor fit].

`CCC(C)c1ccc(NC(=O)c2ccco2)cc1` (stereo unspecified): the AC50 was 0.158 µM [rising, full curve, poor fit] under setting [1] and 12.6 µM [falling, partial curve, poor fit] under setting [2].

For the compound `O=S(=O)(Nc1cc(Sc2ncn[nH]2)c(O)c2ccccc12)c1ccccc1`, the AC50 under setting [1] is 5.01 µM [falling, full curve, poor fit].

As to `Cc1[nH]nc(SCC(=O)N2CCCC2)c1[N+](=O)[O-]`, under setting [1], the AC50 is 10 µM [falling, single point].

For the compound `O=S(=O)(c1ccsc1)N1CC=C(c2ccccc2)CC1`, under setting [1], the AC50 is 6.31 µM [rising, partial curve].

Take `CCc1ccc(OCc2cccc(C(=O)N/N=C\c3cnn(C)c3C)c2)cc1`: the AC50 under setting [1] is 15.8 µM [falling, partial curve, poor fit].

`O=C(Nc1ccccc1F)c1coc(=O)c(Br)c1`: the AC50 under setting [1] was 35.5 µM [rising, single point].

For `COC(=O)Cc1cc(=O)[nH]c(Nc2nc3ccccc3o2)n1`, under setting [1], the half-maximal activity concentration (AC50) was 20.6 µM [falling, single point].

Regarding `O=C(NCc1cccnc1)C(=O)NC1CCCCC1`, the AC50 under setting [1] is 15.8 µM [falling, single point].

Turning to `CCOC(=O)C1CCN(C(=O)COc2cccc3ccccc23)CC1`, the AC50 under setting [1] was 2.82 µM [falling, partial curve].

In the case of `COc1cccc(C(=O)Nc2cnn(C(C)C)c2)c1`, the AC50 was 22.4 µM [falling, single point] under setting [1] and 3.55 µM [rising, full curve, poor fit] under setting [2].

For `CS(=O)(=O)c1nc(S(=O)(=O)c2ccc(Cl)cc2)c(N2CCC(O)CC2)s1`, the AC50 under setting [1] is 14.1 µM [falling, single point].

Regarding `Cc1cc(Br)ccc1OCCCCNC(C)(C)C`, the AC50 under setting [1] is 22.4 µM [falling, single point].

As for `CC(C)(C)c1ccc(CN(Cc2ccccc2)C(c2ccccn2)c2nnnn2C(C)(C)C)cc1` (stereo unspecified), the AC50 under setting [1] is 0.13 µM [rising, full curve, poor fit].

`Cc1ccc(Cn2nnnc2CN2CCC(c3nc4ccc(Cl)cc4[nH]3)CC2)cc1`: the concentration at half-maximal activity (AC50) under setting [1] is 29.1 µM [falling, single point].

Consider `COc1ccc(Oc2nccc(OC)c2C#N)cc1`, for which the concentration at half-maximal activity (AC50) under setting [1] is 23.1 µM [rising, partial curve, poor fit].

For the compound `C=CC[C@@H](CC(=O)N[C@H](CO)Cc1ccccc1)C(=O)N[C@H](COC(=O)[C@@H](CC=C)Cc1ccc(F)cc1)Cc1c[nH]c2ccccc12`, under setting [1], the half-maximal activity concentration (AC50) was 18.4 µM [falling, single point].

For `C/C(CC(=O)Nc1ccc([N+](=O)[O-])cc1)=N\NC(=O)c1ccccc1O`, the half-maximal activity concentration (AC50) under setting [1] was 2 µM [falling, full curve].

In the case of `COc1ccc(-c2nc(CC(=O)Nc3cccc(S(=O)(=O)NC4=NCCC4)c3)cs2)cc1`, the AC50 under setting [1] was 23.1 µM [falling, single point].

For the compound `Cc1ccc(C)c(C(=O)CCC(=O)OCn2nnc3ccccc3c2=O)c1`, the AC50 under setting [1] is 0.92 µM [rising, full curve, poor fit].

Consider `COc1cccc(NC(=O)[C@H](C)NC(=O)N2CCn3c2nc2ccccc23)c1`, for which the half-maximal activity concentration (AC50) under setting [1] was 10 µM [falling, partial curve].

Regarding `O=C(c1ccc(F)cc1)N1CCC(n2nnc3ccccc32)CC1`, the half-maximal activity concentration (AC50) under setting [1] was 20 µM [rising, partial curve, poor fit].

For `CN(C)CCc1cc2c(c3c1ccc1ccccc13)OCO2`, under setting [1], the AC50 is 20 µM [falling, single point].

For `O=c1[nH]c(/C(Cl)=C/c2cc(Cl)ccc2O)nc2cc(Cl)ccc12`, under setting [1], the AC50 was 0.461 µM [rising, full curve].

For `CS(=O)(=O)N1CCSC1c1ccc(Br)cc1` (stereo unspecified), the AC50 under setting [1] was 0.1 µM [falling, full curve, poor fit].

As to `COc1ccc(OC)c(NC(=O)COC(=O)c2ccc(OC)c(S(=O)(=O)N3CCOCC3)c2)c1`, under setting [1], the AC50 is 0.82 µM [rising, full curve, poor fit].

For `CC1=NNC(=O)c2ccccc2O1`, the AC50 under setting [1] is 0.794 µM [rising, full curve, poor fit].

As for `C(=N\Nc1ncnc2sc3c(c12)CCC3)/c1ccncc1`, the AC50 under setting [2] was 15.8 µM [falling, partial curve, poor fit].

With `CC(C)(C)c1nnc2sc(SCC(=O)c3ccc(Cl)cc3)nn2c1=O`, the concentration at half-maximal activity (AC50) under setting [1] was 3.16 µM [falling, partial curve, poor fit].

Consider `CCCC(=O)Nc1c(-c2ccc(C)cc2)c(=O)c2ccccc2n1C`, for which, under setting [1], the AC50 was 12.6 µM [rising, single point].

For the compound `O=C(NCc1nnc(SCc2ccc(F)cc2)n1-c1ccccc1)C12CC3CC(CC(C3)C1)C2`, the AC50 under setting [1] is 29.1 µM [falling, single point].

In the case of `Cc1cccc(Nc2nc(C)nc3c2oc2ccccc23)c1`, the concentration at half-maximal activity (AC50) under setting [1] was 12.6 µM [falling, partial curve, poor fit].

`COc1ccc(Nc2ccc(C(=O)O)cc2[N+](=O)[O-])cc1`: the AC50 under setting [1] is 0.116 µM [falling, full curve].

On to `Cc1nc2nc(SCC(=O)NCCc3ccc(Cl)cc3)nn2c(C)c1Cc1ccccc1Cl`, for which, under setting [1], the AC50 was 14.1 µM [falling, single point].

Take `COc1cccc(/C=N/Nc2ccc([N+](=O)[O-])cc2)c1O`: the AC50 under setting [1] is 7.94 µM [falling, partial curve, poor fit].

As to `O=C(/C=C/c1ccc2ccccc2n1)N1CCN(S(=O)(=O)c2ccccc2F)CC1`, the AC50 under setting [1] was 8.91 µM [rising, partial curve, poor fit].

On to `Nc1ccc(C(=O)OCC(=O)NC2CC2)cc1[N+](=O)[O-]`, for which the AC50 under setting [1] was 8.91 µM [falling, partial curve, poor fit].

`O=C(/C(N=Nc1cccc(C(F)(F)F)c1)=C(/O)c1cccs1)C(F)(F)F`: under setting [1], the concentration at half-maximal activity (AC50) is 0.282 µM [falling, full curve, poor fit].

On to `Cc1ccc(-c2nn(CCC(=O)O)cc2/C=C\C(=O)c2ccc(Br)cc2)cc1`, for which the AC50 under setting [1] was 25.1 µM [falling, single point].

For `CCC(=O)N(CCC(c1ccco1)c1ccccc1OC)Cc1cccs1` (stereo unspecified), the concentration at half-maximal activity (AC50) under setting [1] was 29.1 µM [falling, single point].

With `CO/N=C/C(NC(=O)c1ccc(C(F)(F)F)cc1)C(=O)OC` (stereo unspecified), the AC50 under setting [1] was 35.5 µM [falling, single point].

With `CCCCC(=O)Nc1nnc(SCC(=O)NCC2CCCO2)s1` (stereo unspecified), under setting [1], the half-maximal activity concentration (AC50) is 3.66 µM [falling, partial curve, poor fit].

Turning to `CC1(C)NC(=O)N(CCSc2ccc(Cl)cc2)C1=O`, the AC50 under setting [1] is 7.31 µM [falling, partial curve, poor fit].

Turning to `Cc1ccc(NC(=O)c2c(O)c3ccccc3n(C)c2=O)nc1`, the AC50 under setting [1] is 0.501 µM [falling, full curve].

As to `Cc1ccc(-n2cc(CN3CCN(Cc4nccn4C)CC3)c(-c3cccc(C)c3)n2)cc1`, the AC50 under setting [1] is 3.55 µM [rising, partial curve, poor fit].

Consider `COC(=O)/C=C/c1ccc(-n2cncn2)cc1`, for which the concentration at half-maximal activity (AC50) under setting [1] was 35.5 µM [rising, single point].

As for `CCC1(C)CC(C(N)=S)CCO1` (stereo unspecified), under setting [1], the AC50 is 3.16 µM [falling, single point].

The values above are taken from PubChem BioAssay AID493014 (National Center for Advancing Translational Sciences (NCATS), 2011).
